Assay results taken from the supplement of paper PMC12823440, “Inhibitors supercharge kinase turnover through native proteolytic circuits” (Nature, 2025).
Structures can show the parent of a compound that is named as a salt. The list shows a part of the results. Hit calls seldom repeat between salt and free forms of one compound.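 In K562 cells expressing nanoluciferase-fused kinases, luminescence was recorded at 4 h intervals between 2 and 18 h, normalized as percent of control with DMSO at 100% and a positive control at 0%. A significant (2 sigma) signal drop marks a time point as decreased. The authors' rule for a hit is not shown and takes in more than the number of time points.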

Protein sequences, listed by entry. Tags and fused reporters are not part of them. Lines headed by an entry give the natural chain unless they say otherwise; changes in a name come on top.
UniProt P00519, whole entry: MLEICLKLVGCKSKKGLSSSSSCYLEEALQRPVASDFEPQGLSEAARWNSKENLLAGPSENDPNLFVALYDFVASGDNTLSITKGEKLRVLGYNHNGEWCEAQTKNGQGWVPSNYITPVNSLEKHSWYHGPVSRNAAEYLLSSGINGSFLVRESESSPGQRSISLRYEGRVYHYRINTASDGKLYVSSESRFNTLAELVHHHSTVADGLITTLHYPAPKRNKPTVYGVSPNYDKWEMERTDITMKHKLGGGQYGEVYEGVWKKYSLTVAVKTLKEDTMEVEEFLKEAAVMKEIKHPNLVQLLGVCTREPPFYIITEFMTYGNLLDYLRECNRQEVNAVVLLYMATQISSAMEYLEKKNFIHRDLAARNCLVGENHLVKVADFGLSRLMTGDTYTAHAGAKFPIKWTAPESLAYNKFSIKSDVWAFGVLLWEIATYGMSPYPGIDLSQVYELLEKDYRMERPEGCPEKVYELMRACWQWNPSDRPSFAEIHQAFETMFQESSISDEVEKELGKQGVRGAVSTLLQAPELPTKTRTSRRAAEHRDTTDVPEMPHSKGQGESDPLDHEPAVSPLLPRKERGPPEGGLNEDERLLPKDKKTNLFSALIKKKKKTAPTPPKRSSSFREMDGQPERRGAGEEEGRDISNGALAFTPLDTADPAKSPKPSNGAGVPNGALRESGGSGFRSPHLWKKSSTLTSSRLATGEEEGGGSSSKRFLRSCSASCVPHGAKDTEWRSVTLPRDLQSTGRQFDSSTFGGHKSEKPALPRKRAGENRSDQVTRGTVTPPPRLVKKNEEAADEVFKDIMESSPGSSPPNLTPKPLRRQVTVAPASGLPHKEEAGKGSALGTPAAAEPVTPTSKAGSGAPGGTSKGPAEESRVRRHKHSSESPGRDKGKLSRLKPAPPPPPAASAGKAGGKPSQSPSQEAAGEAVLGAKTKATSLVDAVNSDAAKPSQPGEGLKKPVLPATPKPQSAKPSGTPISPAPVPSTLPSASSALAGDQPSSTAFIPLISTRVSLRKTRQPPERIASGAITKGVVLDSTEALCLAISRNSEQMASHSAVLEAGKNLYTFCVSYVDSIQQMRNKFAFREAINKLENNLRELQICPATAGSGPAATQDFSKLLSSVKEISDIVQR
UniProt P31749: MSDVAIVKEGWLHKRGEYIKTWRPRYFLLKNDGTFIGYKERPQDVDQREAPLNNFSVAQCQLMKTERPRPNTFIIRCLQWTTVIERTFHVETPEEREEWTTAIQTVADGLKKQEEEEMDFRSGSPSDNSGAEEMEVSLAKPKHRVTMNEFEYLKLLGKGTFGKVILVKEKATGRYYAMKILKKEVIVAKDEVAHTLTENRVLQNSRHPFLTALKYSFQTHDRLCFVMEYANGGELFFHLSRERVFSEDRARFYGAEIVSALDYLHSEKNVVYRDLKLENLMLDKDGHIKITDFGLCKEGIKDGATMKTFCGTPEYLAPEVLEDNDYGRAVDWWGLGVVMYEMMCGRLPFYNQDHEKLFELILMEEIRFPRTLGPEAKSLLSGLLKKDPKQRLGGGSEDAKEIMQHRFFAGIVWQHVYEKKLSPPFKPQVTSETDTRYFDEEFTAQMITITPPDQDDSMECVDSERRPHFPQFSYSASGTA
UniProt Q9UM73: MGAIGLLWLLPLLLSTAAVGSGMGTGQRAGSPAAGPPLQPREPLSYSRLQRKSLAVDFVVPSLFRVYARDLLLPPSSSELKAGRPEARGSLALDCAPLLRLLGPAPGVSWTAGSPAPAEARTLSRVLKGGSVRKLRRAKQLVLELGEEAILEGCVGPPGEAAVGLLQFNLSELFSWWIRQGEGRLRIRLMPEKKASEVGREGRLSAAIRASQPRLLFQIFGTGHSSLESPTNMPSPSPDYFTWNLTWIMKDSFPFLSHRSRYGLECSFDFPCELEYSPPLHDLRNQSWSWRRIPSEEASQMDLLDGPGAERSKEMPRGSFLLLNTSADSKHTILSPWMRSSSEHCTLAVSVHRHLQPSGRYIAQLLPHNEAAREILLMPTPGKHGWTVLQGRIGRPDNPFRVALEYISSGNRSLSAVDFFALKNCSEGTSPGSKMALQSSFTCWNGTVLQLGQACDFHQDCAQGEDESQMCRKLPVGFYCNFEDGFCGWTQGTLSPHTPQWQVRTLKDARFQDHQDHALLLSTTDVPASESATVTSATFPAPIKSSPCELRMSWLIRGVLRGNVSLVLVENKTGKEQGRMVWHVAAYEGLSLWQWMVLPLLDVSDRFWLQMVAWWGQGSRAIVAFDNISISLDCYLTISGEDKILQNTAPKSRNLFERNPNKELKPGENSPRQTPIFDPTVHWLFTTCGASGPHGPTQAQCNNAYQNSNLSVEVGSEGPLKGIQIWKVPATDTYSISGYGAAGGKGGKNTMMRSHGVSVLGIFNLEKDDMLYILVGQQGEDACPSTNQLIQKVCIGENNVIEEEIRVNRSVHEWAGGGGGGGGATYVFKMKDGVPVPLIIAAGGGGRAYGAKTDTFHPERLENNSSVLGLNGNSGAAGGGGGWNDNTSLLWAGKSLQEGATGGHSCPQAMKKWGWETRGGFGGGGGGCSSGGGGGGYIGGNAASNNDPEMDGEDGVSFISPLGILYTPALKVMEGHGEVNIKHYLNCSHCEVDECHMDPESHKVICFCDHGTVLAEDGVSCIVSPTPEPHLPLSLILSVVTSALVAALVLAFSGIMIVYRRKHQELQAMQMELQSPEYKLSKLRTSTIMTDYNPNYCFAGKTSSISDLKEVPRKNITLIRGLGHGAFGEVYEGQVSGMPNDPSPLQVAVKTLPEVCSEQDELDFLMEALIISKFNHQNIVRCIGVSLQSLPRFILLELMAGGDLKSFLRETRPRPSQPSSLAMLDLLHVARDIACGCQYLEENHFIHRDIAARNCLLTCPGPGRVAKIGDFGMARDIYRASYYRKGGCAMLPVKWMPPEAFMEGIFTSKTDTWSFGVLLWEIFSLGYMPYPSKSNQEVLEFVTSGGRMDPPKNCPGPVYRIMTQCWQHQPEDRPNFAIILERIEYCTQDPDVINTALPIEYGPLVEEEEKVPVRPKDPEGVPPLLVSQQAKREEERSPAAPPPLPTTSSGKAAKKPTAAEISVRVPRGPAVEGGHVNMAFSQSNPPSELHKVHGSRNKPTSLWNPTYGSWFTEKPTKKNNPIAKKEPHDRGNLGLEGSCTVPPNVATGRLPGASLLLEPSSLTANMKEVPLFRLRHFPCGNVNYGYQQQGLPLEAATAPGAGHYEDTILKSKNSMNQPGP
UniProt P10398: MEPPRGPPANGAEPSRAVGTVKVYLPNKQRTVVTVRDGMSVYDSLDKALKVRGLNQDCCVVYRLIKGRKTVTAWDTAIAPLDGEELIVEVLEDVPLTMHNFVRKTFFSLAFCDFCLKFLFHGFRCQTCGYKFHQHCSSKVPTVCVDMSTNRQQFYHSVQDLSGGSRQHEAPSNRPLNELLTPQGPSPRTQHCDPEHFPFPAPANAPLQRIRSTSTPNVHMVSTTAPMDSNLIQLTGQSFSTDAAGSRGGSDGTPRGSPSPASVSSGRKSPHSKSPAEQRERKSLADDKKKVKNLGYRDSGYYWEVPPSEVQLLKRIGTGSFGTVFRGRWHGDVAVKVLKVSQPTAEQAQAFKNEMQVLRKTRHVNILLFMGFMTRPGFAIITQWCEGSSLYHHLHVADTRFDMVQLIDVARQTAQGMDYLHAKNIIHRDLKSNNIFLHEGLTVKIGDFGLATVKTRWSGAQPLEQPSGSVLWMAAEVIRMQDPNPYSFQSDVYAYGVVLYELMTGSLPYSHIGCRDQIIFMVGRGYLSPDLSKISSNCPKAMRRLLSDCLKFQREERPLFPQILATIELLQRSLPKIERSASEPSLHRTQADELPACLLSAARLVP
UniProt O14965: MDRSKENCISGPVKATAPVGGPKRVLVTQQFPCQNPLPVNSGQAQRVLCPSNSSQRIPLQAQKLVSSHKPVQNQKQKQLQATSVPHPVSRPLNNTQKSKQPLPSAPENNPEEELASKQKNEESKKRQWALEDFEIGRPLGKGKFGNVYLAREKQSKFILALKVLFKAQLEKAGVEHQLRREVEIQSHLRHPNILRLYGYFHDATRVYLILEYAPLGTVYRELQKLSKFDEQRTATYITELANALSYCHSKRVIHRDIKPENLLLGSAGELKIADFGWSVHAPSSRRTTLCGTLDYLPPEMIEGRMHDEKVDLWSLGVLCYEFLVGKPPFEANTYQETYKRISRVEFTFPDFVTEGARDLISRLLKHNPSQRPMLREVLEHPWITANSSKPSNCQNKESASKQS
UniProt Q96GD4, whole entry: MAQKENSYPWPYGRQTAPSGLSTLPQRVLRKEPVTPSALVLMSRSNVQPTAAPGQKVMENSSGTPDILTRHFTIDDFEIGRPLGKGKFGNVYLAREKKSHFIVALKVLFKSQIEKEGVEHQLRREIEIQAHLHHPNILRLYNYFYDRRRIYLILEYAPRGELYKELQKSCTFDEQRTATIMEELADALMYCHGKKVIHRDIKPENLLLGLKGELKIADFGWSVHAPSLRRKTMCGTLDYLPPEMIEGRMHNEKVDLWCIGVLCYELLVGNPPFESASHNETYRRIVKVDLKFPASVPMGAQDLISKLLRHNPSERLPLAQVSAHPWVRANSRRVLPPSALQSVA
UniProt P51451: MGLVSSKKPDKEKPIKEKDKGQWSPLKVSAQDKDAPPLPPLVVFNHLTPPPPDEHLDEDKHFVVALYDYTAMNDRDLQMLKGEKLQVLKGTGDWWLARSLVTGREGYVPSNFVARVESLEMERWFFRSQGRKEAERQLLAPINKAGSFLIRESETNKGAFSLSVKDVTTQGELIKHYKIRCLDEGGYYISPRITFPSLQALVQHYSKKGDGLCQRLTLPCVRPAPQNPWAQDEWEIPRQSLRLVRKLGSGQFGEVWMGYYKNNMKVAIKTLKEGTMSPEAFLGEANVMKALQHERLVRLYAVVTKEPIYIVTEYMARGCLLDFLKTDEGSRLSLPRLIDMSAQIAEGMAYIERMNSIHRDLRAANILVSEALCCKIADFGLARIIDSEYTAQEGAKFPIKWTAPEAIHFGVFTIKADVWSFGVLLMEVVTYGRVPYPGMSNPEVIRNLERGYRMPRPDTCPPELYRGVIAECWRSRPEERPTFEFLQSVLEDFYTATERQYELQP
UniProt P51813: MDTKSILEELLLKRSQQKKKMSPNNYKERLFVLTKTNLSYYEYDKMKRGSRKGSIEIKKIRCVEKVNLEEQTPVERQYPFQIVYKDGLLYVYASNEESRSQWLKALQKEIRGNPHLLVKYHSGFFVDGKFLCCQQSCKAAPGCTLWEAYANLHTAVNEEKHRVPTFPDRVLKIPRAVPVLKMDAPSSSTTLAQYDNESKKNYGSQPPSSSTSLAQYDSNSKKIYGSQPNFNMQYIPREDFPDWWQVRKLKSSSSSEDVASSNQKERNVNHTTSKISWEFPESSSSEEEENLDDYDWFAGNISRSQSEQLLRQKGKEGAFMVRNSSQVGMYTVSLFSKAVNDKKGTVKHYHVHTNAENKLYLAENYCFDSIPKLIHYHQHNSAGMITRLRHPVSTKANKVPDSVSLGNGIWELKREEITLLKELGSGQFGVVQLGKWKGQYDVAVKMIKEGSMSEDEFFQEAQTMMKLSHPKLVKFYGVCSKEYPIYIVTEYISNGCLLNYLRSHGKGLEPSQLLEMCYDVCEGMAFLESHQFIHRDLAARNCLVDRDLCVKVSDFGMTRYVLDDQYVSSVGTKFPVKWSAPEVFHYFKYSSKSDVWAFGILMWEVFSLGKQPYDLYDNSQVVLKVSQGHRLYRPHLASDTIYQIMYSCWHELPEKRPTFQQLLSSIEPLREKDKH
UniProt P15056, whole entry, looked up: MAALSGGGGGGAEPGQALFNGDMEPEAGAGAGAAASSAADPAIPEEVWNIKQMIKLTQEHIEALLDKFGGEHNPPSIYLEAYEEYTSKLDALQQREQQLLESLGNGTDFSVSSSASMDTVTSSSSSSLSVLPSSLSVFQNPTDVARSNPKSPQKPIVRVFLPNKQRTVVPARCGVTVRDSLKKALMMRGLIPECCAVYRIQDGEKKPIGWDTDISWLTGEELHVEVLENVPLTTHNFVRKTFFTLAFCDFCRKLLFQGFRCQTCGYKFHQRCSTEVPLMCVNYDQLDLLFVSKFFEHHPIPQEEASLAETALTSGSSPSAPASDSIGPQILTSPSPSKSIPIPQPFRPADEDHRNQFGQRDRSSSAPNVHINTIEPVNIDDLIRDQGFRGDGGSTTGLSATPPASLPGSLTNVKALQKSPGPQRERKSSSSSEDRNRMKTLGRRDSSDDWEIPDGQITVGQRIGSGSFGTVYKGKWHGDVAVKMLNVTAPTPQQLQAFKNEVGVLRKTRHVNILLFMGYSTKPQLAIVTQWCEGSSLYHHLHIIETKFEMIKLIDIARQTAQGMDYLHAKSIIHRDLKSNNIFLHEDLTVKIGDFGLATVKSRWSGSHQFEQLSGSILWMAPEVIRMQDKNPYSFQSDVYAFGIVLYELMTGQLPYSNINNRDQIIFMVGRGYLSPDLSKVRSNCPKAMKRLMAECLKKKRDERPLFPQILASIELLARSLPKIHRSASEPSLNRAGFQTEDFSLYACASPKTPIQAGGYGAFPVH

Assays:
Test in all cases: kinase-Nluc reporter destabilization hit call (1 = scored as downregulated) (binary); higher = compound decreases kinase abundance
Details in all cases: K562, 2-18 h
[1] = target: ABL1 (UniProt P00519)
[2] = target: AKT1 (UniProt P31749)
[3] = target: ALK (UniProt Q9UM73)
[4] = target: ARAF (UniProt P10398)
[5] = target: AURKA (UniProt O14965)
[6] = target: AURKB (UniProt Q96GD4)
[7] = target: AURKC (UniProt Q9UQB9)
[8] = target: BLK (UniProt P51451)
[9] = target: BMX (UniProt P51813)
[10] = target: BRAF (UniProt P15056)

Measured: kinase-Nluc reporter destabilization hit call

C#Cc1cccc(Nc2ncnc3cc4c(cc23)OCCOCCOCCO4)c1 [Icotinib]
inactive: [1]; 10 µM 0 | [2]; 10 µM 0 | [3]; 10 µM 0 | [4]; 10 µM 0 | [5]; 10 µM 0 | [6]; 10 µM 0 | [7]; 10 µM 0 | [8]; 10 µM 0 | [9]; 10 µM 0 | [10]; 10 µM 0

CC(C)(C)n1nc(-c2cccc3ccccc23)c2c(N)ncnc21 [1-Naphthyl PP1 (hydrochloride)]
inactive: [1]; 10 µM 0 | [2]; 10 µM 0 | [3]; 10 µM 0 | [4]; 10 µM 0 | [5]; 10 µM 0 | [6]; 10 µM 0 | [7]; 10 µM 0 | [8]; 10 µM 0 | [9]; 10 µM 0 | [10]; 10 µM 0

Cc1cccc(/C=N/Nc2cc(N3CCOCC3)nc(OCCc3ccccn3)n2)c1 [Apilimod (mesylate)]
inactive: [1]; 10 µM 0 | [2]; 10 µM 0 | [3]; 10 µM 0 | [4]; 10 µM 0 | [5]; 10 µM 0 | [6]; 10 µM 0 | [7]; 10 µM 0 | [8]; 10 µM 0 | [9]; 10 µM 0 | [10]; 10 µM 0

COc1ccc(S(=O)(=O)N(CCO)c2ccccc2CN(C)C/C=C/c2ccc(Cl)cc2)cc1 [KN-93 (phosphate)]
inactive: [1]; 2.5 µM 0 | [2]; 2.5 µM 0 | [3]; 2.5 µM 0 | [4]; 2.5 µM 0 | [5]; 2.5 µM 0 | [6]; 2.5 µM 0 | [7]; 2.5 µM 0 | [8]; 2.5 µM 0 | [9]; 2.5 µM 0 | [10]; 2.5 µM 0

c1cc(-c2cnn3cc(-c4ccc(OCCN5CCCCC5)cc4)cnc23)ccn1 [Dorsomorphin]
inactive: [1]; 2.5 µM 0 | [2]; 2.5 µM 0 | [3]; 2.5 µM 0 | [4]; 2.5 µM 0 | [5]; 2.5 µM 0 | [6]; 2.5 µM 0 | [7]; 2.5 µM 0 | [8]; 2.5 µM 0 | [9]; 2.5 µM 0 | [10]; 2.5 µM 0

C[C@H](CCC(=O)NCCS(=O)(=O)O)[C@H]1CC[C@H]2[C@@H]3[C@@H](O)C[C@@H]4C[C@H](O)CC[C@]4(C)[C@H]3CC[C@]12C [Tauroursodeoxycholate (sodium)]
inactive: [1]; 10 µM 0 | [2]; 10 µM 0 | [3]; 10 µM 0 | [4]; 10 µM 0 | [5]; 10 µM 0 | [6]; 10 µM 0 | [7]; 10 µM 0 | [8]; 10 µM 0 | [9]; 10 µM 0 | [10]; 10 µM 0

C[C@H](CCC(=O)NCCS(=O)(=O)O)[C@H]1CC[C@H]2[C@@H]3[C@@H](O)C[C@@H]4C[C@H](O)CC[C@]4(C)[C@H]3CC[C@]12C [Tauroursodeoxycholate (dihydrate)]
inactive: [1]; 10 µM 0 | [2]; 10 µM 0 | [3]; 10 µM 0 | [4]; 10 µM 0 | [5]; 10 µM 0 | [6]; 10 µM 0 | [7]; 10 µM 0 | [8]; 10 µM 0 | [9]; 10 µM 0 | [10]; 10 µM 0
